# Results published in PMC3152785.
# Results are given in words; binding and its absence hold for the method and conditions named. In cells and extracts the contact can be indirect. A result given as binding can be weak or reduced; the word gives no strength. For some of these results: Sequences can lack the tags named with a protein.
# Experiments:
# [1] = molecular target: T1, Spry1 expressed from the vector pcR3.1 (for co-immunoprecipitation) (mouse) (UniProt Q9QXV9); assay: co-IP; HeLa cells co-transfected with Spry1 and Myc-tagged E1A12S, lysed 48 h after transfection in RIPA buffer; 0.5 mg lysate with 1.6 μg anti-Spry1 antibody 1.5 h at 4°C, Protein A/G Plus-agarose overnight; blots with anti-Spry1 and anti-Myc
# T1 sequence: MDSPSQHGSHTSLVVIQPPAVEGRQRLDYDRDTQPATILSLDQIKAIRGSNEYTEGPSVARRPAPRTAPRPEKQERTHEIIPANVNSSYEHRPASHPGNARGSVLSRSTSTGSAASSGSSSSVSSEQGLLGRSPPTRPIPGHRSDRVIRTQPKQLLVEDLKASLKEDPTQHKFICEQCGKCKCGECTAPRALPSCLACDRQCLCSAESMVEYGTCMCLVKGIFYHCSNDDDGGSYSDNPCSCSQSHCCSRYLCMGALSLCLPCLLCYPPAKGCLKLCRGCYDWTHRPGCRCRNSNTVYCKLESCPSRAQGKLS
# [2] = molecular target: GST-Ad12 E1A9.5S fusion protein (Adenovirus serotype 12 (Ad12)); assay: pull-down; 0.5 mg of precleared HeLa cell lysate with Myc-tagged Spry proteins incubated with 40 μg of GST-fusion protein for 1 h at 4°C, Glutathione Sepharose 4B; bound proteins by SDS-PAGE and anti-Myc immunoblot; only the target purified
# [3] = molecular target: GST-ΔNE1A12S (Ad12 E1A12S with a deletion of the first 29 N-terminal amino acids) (Adenovirus serotype 12 (Ad12)); assay: as above
Molecule,binding [1],binding [2],binding [3]
Myc-tagged Ad12 E1A12S (vector pcDNA3.1/myc-His(-)B) (Adenovirus serotype 12 (Ad12)),binds,,
"Myc-tagged mouse Sprouty1 (Spry1) (protein, UniProt Q9QXV9 1-313) MDSPSQHGSHTSLVVIQPPAVEGRQRLDYDRDTQPATILSLDQIKAIRGSNEYTEGPSVARRPAPRTAPRPEKQERTHEIIPANVNSSYEHRPASHPGNARGSVLSRSTSTGSAASSGSSSSVSSEQGLLGRSPPTRPIPGHRSDRVIRTQPKQLLVEDLKASLKEDPTQHKFICEQCGKCKCGECTAPRALPSCLACDRQCLCSAESMVEYGTCMCLVKGIFYHCSNDDDGGSYSDNPCSCSQSHCCSRYLCMGALSLCLPCLLCYPPAKGCLKLCRGCYDWTHRPGCRCRNSNTVYCKLESCPSRAQGKLS",,binds,no binding
"Myc-tagged mouse Sprouty4 (Spry4) (protein, UniProt Q9WTP2 1-300) MEPPVPQSSVPVNPSSVMVQPLLDSRAPHSRLQHPLTILPIDQMKTSHVENDYIDNPSLAPATGPKRPRGGPPELAPTPARCDQDITHHWISFSGRPSSVSSSSSTSSDQRLLDHMAPPPVAEQASPRAVRLQPKVVHCKPLDLKGPTAPPELDKHFLLCEACGKCKCKECASPRTLPSCWVCNQECLCSAQTLVNYGTCMCLVQGIFYHCTNEDDEGSCADHPCSCSGSNCCARWSFMGALSVVLPCLLCYLPATGCVKLAQRGYDRLRRPGCRCKHTNSVICKAASGDTKTSRSDKPF",,binds,binds
"Myc-tagged mouse Sprouty2 (Spry2) (protein, UniProt Q9QXV8 1-315) MEARAQSGNGSQPLLQTAHDSGRQRGEPDPRDALTQQVHVLSLDQIRAIRNTNEYTEGPTVVPRPGLKPAPRPSTQHKHERLHGLPEHRQPPRLQPSQVHSSRAPLSRSISTVSSGSRSSTRTSTSSSSSEQRLLGPSFSHGPAAADGIIRVQPKSELKPGDVKPLSKDDLGLHAYRCEDCGKCKCKECTYPRPLPSDWICDKQCLCSAQNVIDYGTCVCCVKGLFYHCSNDDEDNCADNPCSCSQSHCCTRWSAMGVMSLFLPCLWCYLPAKGCLKLCQGCYDRVNRPGCRCKNSNTVCCKVPTVPPRNFEKPT",,binds weakly,no binding
